According to PubChem BioAssay AID1745846 (National Center for Advancing Translational Sciences (NCATS), 2022):
About 30 (2%) of roughly 1,400 compounds were called active. Not shown: some 15% with an inconclusive outcome. The call rests on the fitted dose curve; in most records, active means well fitted inhibition curve with a large enough effect; inconclusive means small, poorly fitted or top-dose-only effect; inactive means flat fitted curve, though single readings scatter. Some of the results follow.

Experiment: Firefly Luciferase Counterscreen for Inhibitors of ATXN expression
Conditions: luminescence; series mostly up to 57.5 µM; activity change, negative = inhibition: at the top concentration
Summary of the method: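 Recombinant firefly luciferase at 10 nM final in 50 mM Tris pH 7.5, 10 mM MgCl2, 0.05% BSA, 0.01% Tween20 with substrate; compounds up to 57 uM final, 10 min room temperature, end-point luminescence. Buffer-only wells define 100% inhibition.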
On the % scale 0 is the no-effect control and ±100 the full control effect; potency means the concentration at half of the fitted maximal effect.

SMILES | activity change, negative = inhibition | Potency
CCCCC(=O)NC(c1ccc(Cl)cc1)c1ccc2cccnc2c1O (stereo unspecified) | inactive: -2.91% | –
CC(=O)c1sc(C(C)(C)C)cc1NC(=O)/C=C/C(=O)O | inactive: -7.46% | –
COc1ccc(C(=O)NNC(=S)NC(=O)C(C)(C)C)cc1 | inactive: -7.32% | –
O=C(Oc1c(CN2CCOCC2)cc(Cl)c2cccnc12)c1ccccc1F | inactive: -1.47% | –
COc1ccc(C(NCC(=O)NC(C)c2ccc(Cl)cc2)c2ccccc2)cc1 (stereo unspecified) | inactive: -3.08% | –
O=C(N/N=C/c1cc(Br)ccc1OC(=O)c1ccc(Br)cc1)c1ccncc1 | inactive: -15.6% | –
C=CCN(C(=O)CSc1nc2c(sc3ccccc32)c(=O)n1CCN(CC)CC)c1ccccc1 | inactive: -0.689% | –
C=C(C)Cn1c(SCC(=O)N/N=C/c2c(O)ccc3ccccc23)nc2ccccc2c1=O | inactive: -8.6% | –
CC[C@@H]1C(c2cccc(Cl)c2)=NN(c2ccc(Br)cc2)[C@H]1C(=O)N1CCOC1=O | inactive: 2.19% | –
O=C(c1ccco1)N1CCCC(c2nc(-c3ccc(S(=O)(=O)NCc4ccccc4)cc3)no2)C1 (stereo unspecified) | inactive: 4.2% | –
c1ccc2c(c1)C(=NC1CCCCC1)NC2=NC1CCCCC1 | inactive: 3.21% | –
O=C(/C=C/c1cccs1)c1cc(Br)ccc1OC(=O)N1CCOCC1 | inactive: 0.0188% | –
Cc1nnc(SCC(N)=O)n1CC1CCCO1 (stereo unspecified) | inactive: 0.593% | –
CCCC(=O)NC(c1ccc(Cl)cc1)c1ccc2cccnc2c1O (stereo unspecified) | inactive: -3.74% | –
NC(=O)c1cccc(-c2ccnc3c2CC(C(=O)Nc2cccc(Oc4ccccc4)c2)O3)c1 (stereo unspecified) | inactive: -7.75% | –
Cc1ccc(/C=N/NC(=O)C2=NNC(c3ccccc3)(c3ccccc3)C2)c(O)c1 | inactive: -2.77% | –
CN(C)CCNc1ncnc2c1sc1nc(N3CCOCC3)c3c(c12)CC(C)(C)SC3 | inactive: 1.26% | –
CCC(=O)NC(=S)NNC(=O)c1ccc(OC)cc1 | inactive: -13.5% | –
COc1cccc(CNc2nc3cc(-c4ccc(C(=O)N5CCN(C)CC5)cc4)sc3c(=O)n2C)c1 | inactive: 0.258% | –
COc1cc(/C=C/CN2CCC(C(=O)NC(c3ccc(F)cc3)c3ccc4ccccc4n3)CC2)ccc1OC(C)=O (stereo unspecified) | inactive: -6.38% | –
CC(C)N(Cc1ccccc1)C(=O)/C=C/c1ccccc1[N+](=O)[O-] | inactive: -5.53% | –
N=c1c2c(n(Cc3cccc(Cl)c3)c3c1CCC3)CCCC2 | inactive: 2.72% | –
CCN(c1ccccc1)S(=O)(=O)c1ccc(C(=O)N(CCCN(C)C)c2nc3c(C)cccc3s2)cc1 | inactive: 0.87% | –
CCOC(=O)C(=CNc1ccc2c(c1)nnn2-c1ccc(Cl)cc1)C(=O)OCC | inactive: 4.05% | –
O=C(Nc1ccccc1C(=O)Nc1nnc(C(F)(F)F)s1)c1ccccc1Cl | – | active: 22.4 µM
CC[n+]1c(/C=C/c2c[nH]c3ccccc23)ccc2cc(C)ccc21 | inactive: -11.8% | –

SMILES | activity change, negative = inhibition | Potency
CC(=NNC(=O)c1ccncc1)c1ccc(O)cc1O | inactive: 4.15% | –
COc1ccc(C2CC(c3ccc(C(F)(F)F)cc3)=NN2c2ccc(S(N)(=O)=O)cc2)cc1 (stereo unspecified) | inactive: -1.14% | –
O=C(CCc1ccccc1)NC(c1cccs1)c1cc(Cl)c2cccnc2c1O (stereo unspecified) | inactive: -2.15% | –
CCN(CC)CCNC(=O)c1ccc(NC(=O)c2ccccc2-c2ccc(C(F)(F)F)cc2)cc1 | inactive: 4.74% | –
COc1ccc(/C=C2/CSC/C(=C/c3ccc(OC)c(OC)c3)C2=O)cc1OC | inactive: -3.2% | –
O=C(c1ccc2c(c1)OCO2)N(Cc1cccs1)C1(C(=O)NC2CCCCC2)CCCCC1 | inactive: 1.67% | –
CN1CCN(C(c2ccc(C(F)(F)F)cc2)c2ccc3cccnc3c2O)CC1 (stereo unspecified) | inactive: -2.36% | –
COC(=O)C(Cc1ccc(O)cc1)NC(=O)C(C)Oc1ccccc1 (stereo unspecified) | inactive: 1.05% | –
C/C(=N\N=C(N)N)c1ccc(Cl)cc1Cl | inactive: 4.59% | –
Cc1cc(C(=O)N/N=C/c2cc(Br)ccc2OC(=O)c2ccccc2Cl)n[nH]1 | inactive: -3.39% | –
CCN1C(=O)/C(=C/c2nc3ccccc3c(=O)n2-c2ccccc2)c2ccccc21 | inactive: 0.962% | –
O=S(=O)(c1cccs1)N1CCN(c2ccnc3cc(Cl)ccc23)CC1 | inactive: 1.84% | –
COc1cccc(/C=N/n2c(N)c(S(=O)(=O)c3cccs3)c3nc4ccccc4nc32)c1OC | inactive: -0.0288% | –
CCN(C(=O)c1cc2c(C)nc3ccccc3c2o1)c1cc(Cl)ccc1OC | inactive: -2.96% | –
COc1cccc(CC(=O)Nc2nc(-c3ccc(OC)c(OC)c3)cs2)c1 | inactive: -3.4% | –
CCCCNCCCOc1cccc(Cl)c1Cl | inactive: 5.28% | –
Cn1c(/C=C/c2cccc([N+](=O)[O-])c2)c([N+](=O)[O-])c(=O)n(C)c1=O | inactive: -5.03% | –
Cc1cc(/C=N/n2cnnc2)c(C)n1-c1ccc(OCc2ccc(F)cc2)cc1 | inactive: -4.71% | –
CCC(=O)NC(c1ccc(OC)cc1)c1cc(Cl)c2cccnc2c1O (stereo unspecified) | inactive: -11% | –
COc1ccc(CC(=O)N/N=C(\C)c2ccccn2)cc1 | inactive: -2.71% | –
O=c1c2ccc(Cl)cc2nc(-c2cccc(C(F)(F)F)c2)n1O | inactive: -13.8% | –
CCOc1ccc(S(=O)(=O)NCCC(=O)N2CC=C(c3ccccc3)CC2)cc1 | inactive: -2.65% | –
O=[N+]([O-])c1ccccc1S(=O)c1ccccc1[N+](=O)[O-] | inactive: 1.65% | –
Cc1nn(-c2ccccc2)c2nc(-c3cccs3)cc(C(=O)NN)c12 | inactive: 1.03% | –
NNC(=O)c1sc2cc(C(F)(F)F)cnc2c1-c1cccs1 | inactive: -3.2% | –
CN(C)CCCN(C(=O)c1ccc(S(=O)(=O)N2CCCC2)cc1)c1nc2ccc(Br)cc2s1 | inactive: -2.15% | –

Among those listed so far, three contain an aryl thioether with sulfur outside any ring:
SMILES | activity change, negative = inhibition | Potency
C=CCN(C(=O)CSc1nc2c(sc3ccccc32)c(=O)n1CCN(CC)CC)c1ccccc1 | inactive: -0.689% | –
C=C(C)Cn1c(SCC(=O)N/N=C/c2c(O)ccc3ccccc23)nc2ccccc2c1=O | inactive: -8.6% | –
Cc1nnc(SCC(N)=O)n1CC1CCCO1 (stereo unspecified) | inactive: 0.593% | –

Following part.

SMILES | activity change, negative = inhibition | Potency
CC[C@@]1(O)C(=O)OCc2c1cc1n(c2=O)Cc2cc3c(CN(C)C)c(O)ccc3nc2-1 | inactive: -5.05% | –
O=C(Nc1ccccc1N1CCN(C(=O)c2ccccc2)CC1)c1ccc(Br)o1 | inactive: -11.4% | –
OC(c1cc(-c2cccc(Cl)c2)nc2ccccc12)C1CCCCN1 (stereo unspecified) | inactive: -8.8% | –
Cc1ccc(Cn2ncc3c(NN)ncnc32)cc1 | inactive: 0.539% | –
CN1CCN(c2nc(Nc3ccc(F)cc3)nc(Nc3ccc(F)cc3)n2)CC1 | inactive: 1.19% | –
O=C(OCCN1C(=O)c2cccc3c(N4CCOCC4)ccc(c23)C1=O)c1ccccc1Cl | inactive: -1.72% | –
CCc1ccc(-n2cc(-c3ccc(F)cc3)[n+]3c2SCCC3)cc1 | inactive: 3.4% | –
O=C(Nc1ccc(Cl)cc1)Nc1nc(-c2sccc2Br)cs1 | inactive: -1.61% | –
COc1cccc2c1C(CO)N1C(C#N)C3CC(C(=O)O)C(C1C2)N3C (stereo unspecified) | inactive: 0.962% | –
Cc1onc(-c2ccccc2)c1C(=O)N/N=C/c1c[nH]c2ccccc12 | inactive: -8.22% | –
CSc1sc(C(=O)NN)c2c1C1(CCC2)SCCS1 | inactive: -4.96% | –
CC1(S(=O)(=O)O)CC(=O)c2ccccc2C1=O (stereo unspecified) | inactive: -2.15% | –
Cn1nnnc1Sc1ncnc2scc(-c3cccc(S(C)(=O)=O)c3)c12 | inactive: -1.18% | –
COc1cnc(-c2ccccn2)nc1Oc1c(C)cccc1C | inactive: -1.47% | –
CC(=O)NC(c1ccc(C(C)C)cc1)c1ccc2cccnc2c1O (stereo unspecified) | inactive: -3.44% | –
CC[n+]1ccccc1/C=C1\Sc2ccc(C)cc2N1C | inactive: -0.952% | –
Cc1ccc(OCCNC(=O)c2cncc(Br)c2)cc1C | inactive: -5.36% | –
Cc1c(C(=O)NCc2ccc(C(F)(F)F)cc2)sc(=O)n1Cc1cccc(F)c1 | inactive: -0.409% | –
CN(/N=C/c1cc(Br)cc(Br)c1O)c1cccc(C(F)(F)F)n1 | inactive: -13.2% | –
CCc1c(C)nc2ncnn2c1N1CCC(C(=O)Nc2ccc(C)cc2)CC1 | inactive: 0.0478% | –
O=C(Nc1cnn(C23CC4CC(CC(C4)C2)C3)c1)c1cnn2c(C(F)(F)F)cc(-c3ccco3)nc12 | inactive: -6.3% | –
COc1ccc(Cc2[nH]n3c(=O)cc(C(C)C)nc3c2-c2ccccc2)cc1 | inactive: -12.5% | –
FC(F)(F)c1nc(-c2cccs2)ncc1-c1nnnn1-c1ccc(Cl)cc1 | inactive: -3.04% | –
C=CCc1cccc(/C=N/NC(=O)CNc2ccccc2OC)c1O | inactive: -5.48% | –
Oc1ccc(C2CNCc3sccc32)cc1O (stereo unspecified) | inactive: -13.3% | –
NNc1ncnc2sc3c(c12)CCC3 | inactive: -1.71% | –

Copied from the list.
C/C(=N\N=C(N)N)c1ccc(Cl)cc1Cl – activity change, negative = inhibition: inactive: 4.59%
Cc1nnc(SCC(N)=O)n1CC1CCCO1 (stereo unspecified) – activity change, negative = inhibition: inactive: 0.593%
Cc1c(C(=O)NCc2ccc(C(F)(F)F)cc2)sc(=O)n1Cc1cccc(F)c1 – activity change, negative = inhibition: inactive: -0.409%

Additional entries follow.

SMILES | activity change, negative = inhibition | Potency
Cc1ccc(C(=O)COC(=O)c2ccc3c(c2)C(=O)N(c2cccc4ncccc24)C3=O)cc1 | inactive: -15.1% | –
C=CCn1cnc2c(c1=O)c1nc3ccccc3nc1n2/N=C/c1cc(OC)c(OC)c(OC)c1 | inactive: -1.89% | –
NNc1nc(N)c2c(n1)-c1ccccc1CC21CCCC1 | inactive: 0.0887% | –
CCn1c(COc2ccccc2C)nnc1SCC(=O)N1CCN(c2ccccc2)CC1 | inactive: -2.47% | –
Cc1cccn2c(=O)c(/C=C(\C#N)C(N)=O)c(N3CCN(c4cccc(Cl)c4)CC3)nc12 | inactive: 0.85% | –
COc1cccc(Nc2nc(C(N)CCc3ccccc3)cs2)n1 (stereo unspecified) | inactive: 4.9% | –
COc1cc(Br)cc(/C=N/NC(=O)Cc2ccc(C(F)(F)F)cc2[N+](=O)[O-])c1O | inactive: -1.33% | –
O=C(CNC(=O)c1ccccc1)N/N=C/c1cc(Br)ccc1O | inactive: -0.948% | –
O=C(N/N=C\c1cccnc1)c1cc(-c2ccccc2)nc2c(Cl)cccc12 | inactive: -13.5% | –
Cn1c(SCC(=O)N/N=C/c2ccc([N+](=O)[O-])s2)nnc1-c1ccccc1 | inactive: -6.84% | –
CC[C@]12c3[nH]c4ccc(Cl)cc4c3CCN1C(=O)[C@@H](CC(=O)NCC13CC4CC(CC(C4)C1)C3)C[C@@H]2C(=O)N1CCN(C(=O)C2CC2)CC1 | inactive: 1.42% | –
Cc1nc(C(F)(F)F)c(C(=O)N/N=C(\N)c2ccccn2)s1 | inactive: -2.72% | –
Cc1ccccc1C(=O)N1CCN(c2ccc(NC(=O)c3ccco3)cc2Cl)CC1 | inactive: -0.668% | –
Cc1ccc(C(C)C)c(OCc2ccc(C(=O)N/N=C/c3ccc(O)cc3O)cc2)c1 | inactive: -15.1% | –
O=C(N/N=C/c1cc([N+](=O)[O-])ccc1O)c1c[nH]c2ccccc12 | inactive: -4.35% | –
Cc1cccc(N(CC(O)CON=C2c3ccccc3-c3ccccc32)S(C)(=O)=O)c1 (stereo unspecified) | inactive: -7.18% | –
Cc1nc2c(OCc3cccc(Cl)c3)cccn2c1N(C)Cc1cccs1 | inactive: -9.31% | –
O=C(C1CCCCC1)N1CCN(c2ccnc3cc(Cl)ccc23)CC1 | inactive: 1.61% | –
COc1ccc(/C=C/C(=O)Nc2cccc(F)c2)cc1S(=O)(=O)N1CCOCC1 | inactive: -7.77% | –
O=C1c2cc(Cl)ccc2-c2c(O)cc(Cl)cc21 | inactive: -11.7% | –
CCN(CC)S(=O)(=O)c1cc(NC(=O)C2CCN(c3ncnc4sc(C)c(C)c34)CC2)ccc1Cl | inactive: 4.54% | –
Cc1cc(Oc2ccc(Cl)cc2)nc(-c2ccccn2)n1 | inactive: 1.53% | –
NS(=O)(=O)c1ccc(N2N=C(c3ccc(Br)cc3)CC2c2ccc(F)cc2)cc1 (stereo unspecified) | inactive: -2.5% | –
